≈ marks a conversion by molar mass, not a printed value.
Test system: E. coli K-12 BW25113
Experiment: Minimal inhibitory concentration, E. coli
Format: cell-based
Conditions: Escherichia coli, BW25113, read-out: minimum inhibitory concentration (MIC)
Source text: Determination of minimal inhibitory concentrations (MICs).
Determination of Minimal Inhibitory Concentrations (MICs).

Q: CC1(C)S[C@@H]2[C@H](NC(=O)[C@H](N)c3ccccc3)C(=O)N2[C@H]1C(=O)O [ampicillin] was tested. Which MIC did it give?
A: 8 µg/mL (≈ 22.9 µM)

Source: US20240285586A1, “METHODS FOR TREATING BACTERIAL CELL POPULATIONS” (THE HONG KONG POLYTECHNIC UNIVERSITY, priority 2021, published 2024)
